Reference: PubChem BioAssay AID1259308 (NCATS, 2017)
Purpose: 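Knock-downs that increase output of a recombinant reporter protein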 (primary screen). Cell system: human HEK293 embryonic kidney cells stably expressing firefly luciferase (HEK-CMV-Luc2-Hygro). Reagents: single siRNA against human genes, 0.8 pmol siRNA per well. Time to read-out: 72 h. Detection: 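Luciferase light (ONE-Glo) measured on one replicate plate set and viability (CellTiter-Glo) on the other, scaled to a negative control siRNA, with robust z-scores and luciferase per cell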. Scale: total luciferase, z-score and total luciferase, % of control: higher = more reporter protein produced; luciferase per cell, z-score: higher = more reporter output per viable cell; viable cells, % of control: higher = more viable cells. Call rule: 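An siRNA counts as active if its total luciferase robust z-score exceeds 3; genes with two or more such siRNAs out of three were retested with fresh siRNAs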. Meaning of the calls: active = raised luciferase; inactive = no rise.
In all, the deposit lists about 59,000 reagents; below is a part drawn at random. Over the whole deposit, about 1,510 (2.6%) were called active. 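Calls use total luciferase alone and ignore viability, so some active siRNAs may act by altering cell number.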 Entries without a mark were called inactive. Reagents against one gene are numbered here.

| gene knocked down | reagent no. | total luciferase, z-score | total luciferase, % of control | luciferase per cell, z-score | viable cells, % of control |
| --- | --- | --- | --- | --- | --- |
| GPR101 (G protein-coupled receptor 101) | 1 | -0.0454 | 81 | -0.465 | 102 |
| GPR101 (G protein-coupled receptor 101) | 2 | -0.968 | 62.6 | -1.51 | 104 |
| GPR101 (G protein-coupled receptor 101) | 3 | -0.241 | 77.1 | -0.257 | 92.2 |
| SLC12A1 | 1 | -0.741 | 67.1 | -1.54 | 113 |
| SLC12A1 | 2 | -0.917 | 63.6 | -0.583 | 82.9 |
| SLC12A1 | 3 | -0.816 | 65.7 | -1.05 | 96.7 |
| POLD3 (DNA polymerase delta 3, accessory subunit) | 1 | -0.672 | 68.5 | 0.293 | 70.9 |
| POLD3 (DNA polymerase delta 3, accessory subunit) | 2 | 0.445 | 90.7 | 0.107 | 98.6 |
| POLD3 (DNA polymerase delta 3, accessory subunit) | 3 | 0.16 | 85.1 | 0.0987 | 92.6 |
| HPS6 (HPS6 biogenesis of lysosomal organelles complex 2 subunit 3) | 1 | -0.115 | 79.6 | -0.173 | 93.1 |
| HPS6 (HPS6 biogenesis of lysosomal organelles complex 2 subunit 3) | 2 | 0.594 | 93.7 | 0.0811 | 102 |
| HPS6 (HPS6 biogenesis of lysosomal organelles complex 2 subunit 3) | 3 | 1.92 | 120 | 1.14 | 99.6 |
| ATP8B1 (ATPase phospholipid transporting 8B1) | 1 | 0.324 | 88.3 | 0.046 | 97.5 |
| ATP8B1 (ATPase phospholipid transporting 8B1) | 2 | -1.53 | 51.4 | -1.53 | 85.9 |
| ATP8B1 (ATPase phospholipid transporting 8B1) | 3 | 0.0921 | 83.7 | 0.293 | 86.6 |
| ICAM5 (intercellular adhesion molecule 5) | 1 | 0.0637 | 83.2 | 0.248 | 87 |
| ICAM5 (intercellular adhesion molecule 5) | 2 | 2.15 | 125 | 1.81 | 86.6 |
| ICAM5 (intercellular adhesion molecule 5) | 3 | 2.41 | 130 | 2.29 | 79.3 |
| DNAI7 (dynein axonemal intermediate chain 7) | 1 | 0.891 | 99.6 | 0.257 | 104 |
| DNAI7 (dynein axonemal intermediate chain 7) | 2 | 1.53 | 112 | 1.03 | 95.6 |
| DNAI7 (dynein axonemal intermediate chain 7) | 3 | -1.41 | 53.8 | -0.927 | 76.7 |
| SRCAP (Snf2 related CREBBP activator protein) | 1 | 0.0705 | 83.3 | -1.06 | 123 |
| SRCAP (Snf2 related CREBBP activator protein) | 2 | -0.668 | 68.6 | -0.532 | 88.2 |
| SRCAP (Snf2 related CREBBP activator protein) | 3 | -1.18 | 58.4 | -0.538 | 75.1 |
| PIAS2 (protein inhibitor of activated STAT 2) | 1 | 0.424 | 90.3 | -0.375 | 111 |
| PIAS2 (protein inhibitor of activated STAT 2) | 2 | 0.813 | 98.1 | 0.454 | 97.2 |
| PIAS2 (protein inhibitor of activated STAT 2) | 3 | -0.516 | 71.6 | -0.591 | 93.5 |
| CFAP300 (cilia and flagella associated protein 300) | 1 | -1.26 | 56.9 | -0.535 | 73.2 |
| CFAP300 (cilia and flagella associated protein 300) | 2 | -0.427 | 73.4 | -0.663 | 97.7 |
| CFAP300 (cilia and flagella associated protein 300) | 3 | 1.09 | 104 | 2.17 | 65.4 |
| NOP53 (NOP53 ribosome biogenesis factor) | 1 | -0.266 | 76.6 | 0.197 | 81.3 |
| NOP53 (NOP53 ribosome biogenesis factor) | 2 | -1.39 | 54.2 | -1.22 | 83.5 |
| NOP53 (NOP53 ribosome biogenesis factor) | 3 | -2.02 | 41.8 | -2.6 | 92.6 |

Continued; the last 9 above are carried over.
| gene knocked down | reagent no. | total luciferase, z-score | total luciferase, % of control | luciferase per cell, z-score | viable cells, % of control |
| --- | --- | --- | --- | --- | --- |
| PIAS2 (protein inhibitor of activated STAT 2) | 1 | 0.424 | 90.3 | -0.375 | 111 |
| PIAS2 (protein inhibitor of activated STAT 2) | 2 | 0.813 | 98.1 | 0.454 | 97.2 |
| PIAS2 (protein inhibitor of activated STAT 2) | 3 | -0.516 | 71.6 | -0.591 | 93.5 |
| CFAP300 (cilia and flagella associated protein 300) | 1 | -1.26 | 56.9 | -0.535 | 73.2 |
| CFAP300 (cilia and flagella associated protein 300) | 2 | -0.427 | 73.4 | -0.663 | 97.7 |
| CFAP300 (cilia and flagella associated protein 300) | 3 | 1.09 | 104 | 2.17 | 65.4 |
| NOP53 (NOP53 ribosome biogenesis factor) | 1 | -0.266 | 76.6 | 0.197 | 81.3 |
| NOP53 (NOP53 ribosome biogenesis factor) | 2 | -1.39 | 54.2 | -1.22 | 83.5 |
| NOP53 (NOP53 ribosome biogenesis factor) | 3 | -2.02 | 41.8 | -2.6 | 92.6 |
| MAP3K1 (mitogen-activated protein kinase kinase kinase 1) | 1 | 1.42 | 110 | 1.41 | 85 |
| MAP3K1 (mitogen-activated protein kinase kinase kinase 1) | 2 | 0.479 | 91.4 | -0.0891 | 105 |
| MAP3K1 (mitogen-activated protein kinase kinase kinase 1) | 3 | 0.372 | 89.3 | -0.0449 | 101 |
| LRRN3 (leucine rich repeat neuronal 3) | 1 | -0.627 | 69.4 | -1.14 | 105 |
| LRRN3 (leucine rich repeat neuronal 3) | 2 | 2.74 | 136 | 2.73 | 74.2 |
| LRRN3 (leucine rich repeat neuronal 3) | 3 | -0.56 | 70.8 | -0.97 | 102 |
| NOS2 (nitric oxide synthase 2) | 1 | 1.39 | 110 | 1.38 | 85.1 |
| NOS2 (nitric oxide synthase 2) | 2 | 0.0383 | 82.6 | -0.344 | 101 |
| NOS2 (nitric oxide synthase 2) | 3 | 0.64 | 94.6 | 0.357 | 96.2 |
| PRLHR (prolactin releasing hormone receptor) | 1 | 3.14 (active) | 144 | 1.51 | 108 |
| PRLHR (prolactin releasing hormone receptor) | 2 | 0.705 | 95.9 | 0.218 | 101 |
| PRLHR (prolactin releasing hormone receptor) | 3 | -1.8 | 46.1 | -1.91 | 85.2 |
| RELA (RELA proto-oncogene, NF-kB subunit) | 1 | 0.446 | 90.8 | 0.113 | 98.4 |
| RELA (RELA proto-oncogene, NF-kB subunit) | 2 | -0.707 | 67.8 | -1.06 | 100 |
| RELA (RELA proto-oncogene, NF-kB subunit) | 3 | -0.0193 | 81.5 | -0.395 | 101 |
| TMEM198B (transmembrane protein 198B (pseudogene)) | 1 | 1.08 | 103 | 0.59 | 98.9 |
| TMEM198B (transmembrane protein 198B (pseudogene)) | 2 | -0.0728 | 80.4 | -0.477 | 102 |
| TMEM198B (transmembrane protein 198B (pseudogene)) | 3 | -2.56 | 30.9 | -4.05 | 100 |
| ERMARD (ER membrane associated RNA degradation) | 1 | 0.945 | 101 | 0.395 | 101 |
| ERMARD (ER membrane associated RNA degradation) | 2 | 0.368 | 89.2 | -0.231 | 106 |
| ERMARD (ER membrane associated RNA degradation) | 3 | -0.251 | 76.9 | -1.04 | 113 |
| OR6C70 (olfactory receptor family 6 subfamily C member 70) | 1 | 2.86 | 139 | 2.64 | 77.4 |
| OR6C70 (olfactory receptor family 6 subfamily C member 70) | 2 | -1.81 | 45.9 | -1.67 | 79.7 |
| OR6C70 (olfactory receptor family 6 subfamily C member 70) | 3 | -0.402 | 73.9 | 0.172 | 78.9 |
| CTU1 (cytosolic thiouridylase subunit 1) | 1 | 1.25 | 107 | 0.28 | 111 |
| CTU1 (cytosolic thiouridylase subunit 1) | 2 | -0.577 | 70.4 | -1.28 | 110 |
| CTU1 (cytosolic thiouridylase subunit 1) | 3 | -0.119 | 79.5 | -1.03 | 116 |
| LOC645967 | 1 | 1.21 | 106 | 0.857 | 94.4 |
| LOC645967 | 2 | -0.152 | 78.9 | -0.844 | 110 |
| LOC645967 | 3 | 0.215 | 86.2 | -0.394 | 107 |
| KDM5D (lysine demethylase 5D) | 1 | -0.628 | 69.4 | -0.676 | 92.7 |
| KDM5D (lysine demethylase 5D) | 2 | -0.406 | 73.8 | -0.769 | 101 |
| KDM5D (lysine demethylase 5D) | 3 | 5.73 (active) | 196 | 3.34 | 90.9 |
| DCTD (dCMP deaminase) | 1 | 0.657 | 95 | 0.49 | 93.3 |
| DCTD (dCMP deaminase) | 2 | 0.896 | 99.7 | 0.118 | 108 |
| DCTD (dCMP deaminase) | 3 | 0.816 | 98.1 | -0.187 | 115 |
| FAM167B (family with sequence similarity 167 member B) | 1 | 1.16 | 105 | 0.159 | 112 |
| FAM167B (family with sequence similarity 167 member B) | 2 | 0.0706 | 83.3 | 0.197 | 88.4 |
| FAM167B (family with sequence similarity 167 member B) | 3 | -0.147 | 79 | 0.00999 | 88 |
| SP140L (SP140 like nuclear body protein) | 1 | 1.82 | 118 | 1.07 | 99.6 |
| SP140L (SP140 like nuclear body protein) | 2 | 0.14 | 84.7 | -0.354 | 104 |
| SP140L (SP140 like nuclear body protein) | 3 | -1.06 | 60.8 | -1.01 | 88.6 |
